The exact form of at least one protein or probe is not confirmed.
Test system: GST-OsSAE1 (Oryza sativa)
Experiment: EMSA
Settings: competed by excess unlabeled probe; LightShift Chemiluminescent EMSA Kit (Thermo Fisher), manufacturer's instructions; pH and temperature not stated; recombinant protein; protein details: N-terminal GST (pGEX6p-1); label: biotin

| Sequence | binding result |
| --- | --- |
| AGAACCGGAGAAGAGAGCAATGGCGGCAATGCTTAATTATCTGCTGGAG (double strand) [OsGA2ox3 promoter P2 GCC-box probe] | binds |
| CTGATTTTTGCCCGAGGCACGGCCGCCACAGCCTCTAGGAGTGCACCTG (double strand) [OsKS1 promoter P1 GCC-box probe] | binds |

— publication PMC12782891
